Data: patent US20160046724A1
Results are given in words; binding and its absence hold for the method and conditions named. Some results given as binding are weak or reduced against the parent protein; the word gives no strength.

The chains behind the UniProt entries cited, without tags or fusion partners. Residues count along the entry.
UniProt Q02223, residues 1-54: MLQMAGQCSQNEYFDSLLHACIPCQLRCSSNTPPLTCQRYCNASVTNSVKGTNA
BCMA-Fc antigen (Q02223, residues 5-51): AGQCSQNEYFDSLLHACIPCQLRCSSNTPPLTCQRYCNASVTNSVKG

B1: BCMA-4NP tool CAR (protein, not shown: a dimerising Fc or GST)
chain: QVQLVQSGAEVKKPGSSVKVSCKASGGTFSNYWMHWVRQAPGQGLEWMGATYRGHSDTYYNQKFKGRVTITADKSTSTAYMELSSLRSEDTAVYYCARGAIYNGYDVLDNWGQGTLVTVSSGGGGSGGGGSGGGGSGGGGSDIQMTQSPSSLSASVGDRVTITCSASQDISNYLNWYQQKPGKAPKLLIYYTSNLHSGVPSRFSGSGSGTDFTLTISSLQPEDFATYYCQQYRKLPWTFGQGTKLEIKR
B2: BCMA-11 scFv (scFv)
scFv: QVQLVQSGGGLVKPGGSLRLSCAASGFTFSDYYMSWIRQAPGKGLEWVSYISSSGNTIYYADSVKGRFTISRDNAKNSLYLQMNSLRAEDTAVYYCARSTMVREDYWGQGTLVTVSSASGGGGSGGRASGGGGSDIVLTQSPLSLPVTLGQPASISCKSSESLVHNSGKTYLNWFHQRPGQSPRRLIYEVSNRDSGVPDRFTGSGSGTDFTLKISRVEAEDVGVYYCMQGTHWPGTFGQGTKLEIK
B3: BCMA-9 scFv (scFv)
scFv: QVQLVESGGGLVKPGGSLRLSCAASGFTFSDYYMSWIRQAPGKGLEWVSYISSSGSTIYYADSVKGRFTISRDNAKNSLYLQMNSLRAEDTAVYYCARESGDGMDVWGQGTTVTVSSASGGGGSGGRASGGGGSDIQMTQSPSSLSASVGDRVTITCRASQSISSYLNWYQQKPGKAPKLLIYAASSLQSGVPSRFSGSGSGTDFTLTISSLQPEDFATYYCQQSYTLAFGQGTKVDIK
B4: BCMA-1 scFv (scFv)
scFv: QVQLVQSGAEVRKTGASVKVSCKASGYIFDNFGINWVRQAPGQGLEWMGWINPKNNNTNYAQKFQGRVTITADESTNTAYMEVSSLRSEDTAVYYCARGPYYYQSYMDVWGQGTMVTVSSASGGGGSGGRASGGGGSDIVMTQTPLSLPVTPGEPASISCRSSQSLLHSNGYNYLNWYLQKPGQSPQLLIYLGSKRASGVPDRFSGSGSGTDFTLHITRVGAEDVGVYYCMQALQTPYTFGQGTKLEIK
B5: BCMA-3 scFv (scFv)
scFv: QVQLVQSGAEVKKPGASVKVSCKASGYTFSNYGITWVRQAPGQGLEWMGWISAYNGNTNYAQKFQGRVTMTRNTSISTAYMELSSLRSEDTAVYYCARGPYYYYMDVWGKGTMVTVSSASGGGGSGGRASGGGGSEIVMTQSPLSLPVTPGEPASISCRSSQSLLYSNGYNYVDWYLQKPGQSPQLLIYLGSNRASGVPDRFSGSGSGTDFKLQISRVEAEDVGIYYCMQGRQFPYSFGQGTKVEIK
B6: BCMA-2 scFv (scFv)
scFv: QVQLQESGGGLVQPGGSLRLSCAASGFTFSSDAMTWVRQAPGKGLEWVSVISGSGGTTYYADSVKGRFTISRDNSKNTLYLQMNSLRAEDTAVYYCAKLDSSGYYYARGPRYWGQGTLVTVSSASGGGGSGGRASGGGGSDIQLTQSPSSLSASVGDRVTITCRASQSISSYLNWYQQKPGKAPKLLIYGASTLASGVPARFSGSGSGTHFTLTINSLQSEDSATYYCQQSYKRASFGQGTKVEIK
B7: BCMA-4 scFv (scFv)
scFv: QVQLVESGGGLVQPGRSLRLSCAASGFTFSNYAMSWVRQAPGKGLGWVSGISRSGENTYYADSVKGRFTISRDNSKNTLYLQMNSLRDEDTAVYYCARSPAHYYGGMDVWGQGTTVTVSSASGGGGSGGRASGGGGSDIVLTQSPGTLSLSPGERATLSCRASQSISSSFLAWYQQKPGQAPRLLIYGASRRATGIPDRFSGSGSGTDFTLTISRLEPEDSAVYYCQQYHSSPSWTFGQGTKLEIK

These binders were tested against BCMA-Fc antigen (UniProt Q02223) (assay: flow cytometry of CAR-transduced SupT1 cells stained with BCMA-Fc antigen (titer determination)).

Row | binding | Binder
1 | binds | B1

These binders were tested against BCMA (recombinant, form not given) (UniProt Q02223) (assay: phage panning on Bio-BCMA, ELISA for BCMA reactivity, FACS of purified scFv (FACS target not named)).

Row | binding | Binder
2 | binds | B2
3 | binds | B3
4 | binds | B4
5 | binds | B5
6 | binds | B6
7 | binds | B7
